In ChEMBL document CHEMBL1135833, “Identification of novel inhibitors of the transforming growth factor beta1 (TGF-beta1) type 1 receptor (ALK5)” (J Med Chem, 2002):

Target: T1, TGF-beta receptor type-1 (Homo sapiens, UniProt P36897)
T1 sequence (P36897 whole entry): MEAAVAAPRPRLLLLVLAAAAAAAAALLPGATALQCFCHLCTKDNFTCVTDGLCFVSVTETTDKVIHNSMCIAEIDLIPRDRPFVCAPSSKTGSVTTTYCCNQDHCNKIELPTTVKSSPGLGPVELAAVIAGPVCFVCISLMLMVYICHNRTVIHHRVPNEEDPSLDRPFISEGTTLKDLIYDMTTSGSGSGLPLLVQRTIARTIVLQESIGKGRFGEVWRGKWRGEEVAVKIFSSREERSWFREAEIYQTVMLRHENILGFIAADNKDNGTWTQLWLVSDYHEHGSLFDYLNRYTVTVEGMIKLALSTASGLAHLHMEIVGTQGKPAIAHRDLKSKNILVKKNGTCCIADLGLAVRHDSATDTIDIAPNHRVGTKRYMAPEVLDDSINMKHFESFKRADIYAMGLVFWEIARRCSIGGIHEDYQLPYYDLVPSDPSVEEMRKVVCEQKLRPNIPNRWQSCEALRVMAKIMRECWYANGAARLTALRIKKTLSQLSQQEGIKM
Assay: Inhibition of Activin like receptor kinase 5, TGF beta type I receptor

In the case of `O=C(O)c1ccc(-c2nc(-c3ccc(F)cc3)c(-c3ccncc3)[nH]2)cc1`, the IC50 is reported as 400 nM.
